# For at least one compound, name, drawing or mass did not settle the structure.
# Sequences of proteins named here, by UniProt entry; tags and fusion partners are left off. Residues count along the entry.
# UniProt P22303, 32-614: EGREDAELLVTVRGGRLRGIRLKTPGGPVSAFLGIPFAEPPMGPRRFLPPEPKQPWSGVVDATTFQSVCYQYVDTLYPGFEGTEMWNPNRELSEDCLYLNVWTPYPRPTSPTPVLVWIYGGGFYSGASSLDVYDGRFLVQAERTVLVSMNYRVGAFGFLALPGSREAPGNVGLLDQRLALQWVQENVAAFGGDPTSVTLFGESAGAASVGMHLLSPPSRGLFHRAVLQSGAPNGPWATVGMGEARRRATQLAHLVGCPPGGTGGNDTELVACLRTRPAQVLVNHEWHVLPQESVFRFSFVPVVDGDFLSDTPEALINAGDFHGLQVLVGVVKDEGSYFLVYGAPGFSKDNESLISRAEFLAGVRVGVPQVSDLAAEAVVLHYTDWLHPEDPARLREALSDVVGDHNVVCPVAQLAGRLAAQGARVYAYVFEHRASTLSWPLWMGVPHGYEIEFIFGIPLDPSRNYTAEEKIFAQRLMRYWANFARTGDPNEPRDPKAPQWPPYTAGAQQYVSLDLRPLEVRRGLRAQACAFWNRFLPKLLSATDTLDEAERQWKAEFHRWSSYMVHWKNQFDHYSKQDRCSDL
# Biological target: AChE peripheral site (Homo sapiens, UniProt P22303)
# Assay: Propidium competition, fluorescence
# Type: binding
# Conditions: 5 μM AChE incubated at least 6 hours, 20 μM propidium iodide, 1 mM Tris/HCl pH 8.0
# Protocol: Fluorescence was measured in a Fluostar optima plate reader (BMG). Measurements were carried out in 100 μl solution volume, in 96-well plates. The buffer used was 1 mM Tris/HCl, pH 8.0. 5 μM AchE was incubated, at least 6 hours, with the molecules at different concentrations. 20 μM propidium iodide was added 10 min before fluorescence measurement. The excitation wavelength was 485 nm, and that of emission, 620 nm.
structure (smiles),measurement,value
"O=C(NCCC1CCN(Cc2ccccc2)CC1)OCCc1c[nH]c2ccccc12 [Compound 7, [2-(1-Benzyl-piperidin-4-yl)-ethyl]-carbamic acid 2-(1H-indol-3-yl)-ethyl ester]",Propidium competition,10 µM

# Source: patent publication US20080119521A1, “Butyrlcholinesterase Selective Inhibitors” (priority 2004, published 2008)
